Assay results as given in patent US20220056075A1, “METHOD FOR TREATING OPIOID USE DISORDER” (THE ADMINISTRATORS OF THE TULANE EDUCATIONAL FUND, priority 2019, published 2022).

Tested on: male and female mice
Settings: acute, equi-antinociceptive doses

Structure (SMILES): CN1CC[C@]23c4c5ccc(O)c4O[C@H]2[C@@H](O)C=C[C@H]3[C@H]1C5.O=S(=O)(O)O [Morphine, Morphine sulfate, reference compound]
- distance traveled (AUC): increased the AUCs of distance traveled
